The record followed here is paper PMC6794377.

The chains behind the UniProt entries cited, without tags or fusion partners.
UniProt Q8R429: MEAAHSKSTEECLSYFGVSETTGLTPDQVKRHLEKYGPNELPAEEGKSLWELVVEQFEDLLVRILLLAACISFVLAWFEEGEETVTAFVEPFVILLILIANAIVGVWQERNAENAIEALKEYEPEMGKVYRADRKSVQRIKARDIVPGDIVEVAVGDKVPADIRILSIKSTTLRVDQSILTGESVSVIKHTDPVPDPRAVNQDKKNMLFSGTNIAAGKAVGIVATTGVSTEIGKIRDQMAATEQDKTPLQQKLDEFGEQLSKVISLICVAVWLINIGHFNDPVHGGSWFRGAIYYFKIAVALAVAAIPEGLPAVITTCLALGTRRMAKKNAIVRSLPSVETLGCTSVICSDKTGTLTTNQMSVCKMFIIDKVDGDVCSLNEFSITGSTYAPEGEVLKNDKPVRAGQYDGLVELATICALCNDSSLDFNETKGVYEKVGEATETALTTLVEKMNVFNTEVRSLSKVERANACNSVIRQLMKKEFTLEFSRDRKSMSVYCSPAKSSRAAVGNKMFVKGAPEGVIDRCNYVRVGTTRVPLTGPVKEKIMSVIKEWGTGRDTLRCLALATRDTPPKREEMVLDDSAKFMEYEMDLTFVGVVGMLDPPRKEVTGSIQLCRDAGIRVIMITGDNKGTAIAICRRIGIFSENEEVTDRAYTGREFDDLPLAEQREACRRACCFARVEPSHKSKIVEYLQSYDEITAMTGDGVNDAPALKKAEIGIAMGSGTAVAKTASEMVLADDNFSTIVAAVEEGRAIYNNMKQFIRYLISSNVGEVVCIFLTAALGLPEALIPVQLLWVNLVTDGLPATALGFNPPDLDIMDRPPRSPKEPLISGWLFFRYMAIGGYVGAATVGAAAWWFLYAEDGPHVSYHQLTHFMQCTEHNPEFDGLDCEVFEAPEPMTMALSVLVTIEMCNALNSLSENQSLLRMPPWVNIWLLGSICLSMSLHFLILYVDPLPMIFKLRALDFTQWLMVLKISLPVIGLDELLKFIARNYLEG
UniProt Q8CGC7: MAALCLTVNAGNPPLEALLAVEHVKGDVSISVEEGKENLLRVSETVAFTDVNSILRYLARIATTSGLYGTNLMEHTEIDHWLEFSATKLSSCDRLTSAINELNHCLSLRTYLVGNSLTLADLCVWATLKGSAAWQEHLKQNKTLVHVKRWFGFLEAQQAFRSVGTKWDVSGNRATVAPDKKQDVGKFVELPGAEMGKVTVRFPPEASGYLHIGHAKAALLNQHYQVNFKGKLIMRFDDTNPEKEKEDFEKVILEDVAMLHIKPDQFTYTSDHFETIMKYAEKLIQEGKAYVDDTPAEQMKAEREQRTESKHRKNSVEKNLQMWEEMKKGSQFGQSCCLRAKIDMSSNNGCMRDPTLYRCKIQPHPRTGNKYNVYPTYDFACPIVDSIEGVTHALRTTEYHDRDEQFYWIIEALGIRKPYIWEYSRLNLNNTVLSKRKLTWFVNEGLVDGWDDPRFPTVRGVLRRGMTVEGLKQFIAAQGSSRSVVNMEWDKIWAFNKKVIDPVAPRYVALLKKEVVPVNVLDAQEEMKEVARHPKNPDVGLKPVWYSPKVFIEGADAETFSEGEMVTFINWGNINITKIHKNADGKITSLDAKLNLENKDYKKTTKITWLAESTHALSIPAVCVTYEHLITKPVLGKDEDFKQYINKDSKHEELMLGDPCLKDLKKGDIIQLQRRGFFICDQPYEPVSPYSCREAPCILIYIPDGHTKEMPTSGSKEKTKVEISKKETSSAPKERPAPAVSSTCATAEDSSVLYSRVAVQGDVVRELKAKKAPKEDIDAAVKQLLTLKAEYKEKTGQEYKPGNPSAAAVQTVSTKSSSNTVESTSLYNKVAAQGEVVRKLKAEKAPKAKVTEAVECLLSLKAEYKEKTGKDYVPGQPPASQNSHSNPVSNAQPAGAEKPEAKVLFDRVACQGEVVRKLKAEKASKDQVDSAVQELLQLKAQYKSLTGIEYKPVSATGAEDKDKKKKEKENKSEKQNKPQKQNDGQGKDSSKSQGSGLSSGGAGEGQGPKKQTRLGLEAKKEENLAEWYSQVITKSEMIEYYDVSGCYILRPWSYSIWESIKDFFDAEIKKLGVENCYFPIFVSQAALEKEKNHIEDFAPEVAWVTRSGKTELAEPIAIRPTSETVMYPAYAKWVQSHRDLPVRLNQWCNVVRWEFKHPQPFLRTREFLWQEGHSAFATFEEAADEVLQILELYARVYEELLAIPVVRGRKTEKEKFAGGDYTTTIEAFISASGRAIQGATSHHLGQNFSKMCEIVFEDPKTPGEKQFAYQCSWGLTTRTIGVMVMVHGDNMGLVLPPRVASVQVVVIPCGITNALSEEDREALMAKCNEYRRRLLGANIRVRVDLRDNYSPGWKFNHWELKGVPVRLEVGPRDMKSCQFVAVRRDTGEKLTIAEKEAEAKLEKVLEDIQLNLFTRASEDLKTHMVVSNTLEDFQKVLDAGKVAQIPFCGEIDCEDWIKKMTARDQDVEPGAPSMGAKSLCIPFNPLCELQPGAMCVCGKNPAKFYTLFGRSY
UniProt Q99MN1: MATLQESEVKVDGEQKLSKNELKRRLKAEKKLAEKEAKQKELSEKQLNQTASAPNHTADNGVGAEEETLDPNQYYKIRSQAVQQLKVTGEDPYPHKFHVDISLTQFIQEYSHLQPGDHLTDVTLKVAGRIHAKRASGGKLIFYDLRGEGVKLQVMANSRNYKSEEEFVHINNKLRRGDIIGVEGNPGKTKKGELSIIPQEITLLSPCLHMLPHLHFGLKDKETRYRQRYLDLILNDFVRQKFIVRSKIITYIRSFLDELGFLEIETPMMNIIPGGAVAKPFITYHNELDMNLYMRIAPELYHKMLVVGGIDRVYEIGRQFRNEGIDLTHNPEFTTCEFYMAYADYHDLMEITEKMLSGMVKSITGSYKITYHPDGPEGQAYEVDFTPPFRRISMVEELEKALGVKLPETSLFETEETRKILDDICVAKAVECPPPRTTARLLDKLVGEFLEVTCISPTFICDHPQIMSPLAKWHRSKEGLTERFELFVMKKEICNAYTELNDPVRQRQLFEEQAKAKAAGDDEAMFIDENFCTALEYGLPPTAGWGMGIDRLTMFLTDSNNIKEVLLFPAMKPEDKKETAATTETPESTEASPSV
UniProt Q8BMJ2: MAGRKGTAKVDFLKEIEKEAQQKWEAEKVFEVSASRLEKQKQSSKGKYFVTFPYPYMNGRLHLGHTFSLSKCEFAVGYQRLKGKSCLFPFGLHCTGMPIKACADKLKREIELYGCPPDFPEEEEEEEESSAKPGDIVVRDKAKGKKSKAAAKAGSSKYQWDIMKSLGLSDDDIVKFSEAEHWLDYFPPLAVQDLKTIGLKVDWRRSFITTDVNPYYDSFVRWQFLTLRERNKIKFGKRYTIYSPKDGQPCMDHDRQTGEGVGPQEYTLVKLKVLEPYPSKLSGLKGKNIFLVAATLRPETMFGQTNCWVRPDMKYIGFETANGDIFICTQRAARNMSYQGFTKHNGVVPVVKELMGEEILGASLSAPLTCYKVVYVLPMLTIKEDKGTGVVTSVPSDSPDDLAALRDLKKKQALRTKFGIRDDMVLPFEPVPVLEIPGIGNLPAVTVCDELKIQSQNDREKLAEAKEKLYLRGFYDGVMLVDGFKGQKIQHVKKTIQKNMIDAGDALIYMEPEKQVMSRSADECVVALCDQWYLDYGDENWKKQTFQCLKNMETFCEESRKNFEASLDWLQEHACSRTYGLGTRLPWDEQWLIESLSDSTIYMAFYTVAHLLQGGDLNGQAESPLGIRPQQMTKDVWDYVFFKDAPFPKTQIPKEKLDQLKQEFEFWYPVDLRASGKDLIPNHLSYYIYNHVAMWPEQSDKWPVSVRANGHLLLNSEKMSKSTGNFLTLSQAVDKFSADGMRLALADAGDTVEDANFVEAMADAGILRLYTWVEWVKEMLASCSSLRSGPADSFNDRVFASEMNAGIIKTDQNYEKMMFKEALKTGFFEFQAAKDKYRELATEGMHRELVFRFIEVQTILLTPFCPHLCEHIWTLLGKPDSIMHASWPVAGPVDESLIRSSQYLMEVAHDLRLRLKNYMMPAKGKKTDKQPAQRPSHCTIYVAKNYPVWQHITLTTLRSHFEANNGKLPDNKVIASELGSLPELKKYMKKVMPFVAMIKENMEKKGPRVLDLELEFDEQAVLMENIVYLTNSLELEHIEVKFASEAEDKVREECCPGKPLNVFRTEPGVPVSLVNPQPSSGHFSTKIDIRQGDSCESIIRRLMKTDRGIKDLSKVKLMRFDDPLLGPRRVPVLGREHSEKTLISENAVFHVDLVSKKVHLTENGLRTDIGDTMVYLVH

No constants are given. Whether binding was seen depends on the method and setting. In cells and extracts the contact can be indirect. These calls come from enrichment with a bait or labelling near it, and not all partners need be listed.

The experiment addresses T1, native mouse ThrRS-L (mThrRS-L) (mouse (endogenous in muscle tissue and NIH/3T3)) (UniProt Q8BLY2).
T1 sequence: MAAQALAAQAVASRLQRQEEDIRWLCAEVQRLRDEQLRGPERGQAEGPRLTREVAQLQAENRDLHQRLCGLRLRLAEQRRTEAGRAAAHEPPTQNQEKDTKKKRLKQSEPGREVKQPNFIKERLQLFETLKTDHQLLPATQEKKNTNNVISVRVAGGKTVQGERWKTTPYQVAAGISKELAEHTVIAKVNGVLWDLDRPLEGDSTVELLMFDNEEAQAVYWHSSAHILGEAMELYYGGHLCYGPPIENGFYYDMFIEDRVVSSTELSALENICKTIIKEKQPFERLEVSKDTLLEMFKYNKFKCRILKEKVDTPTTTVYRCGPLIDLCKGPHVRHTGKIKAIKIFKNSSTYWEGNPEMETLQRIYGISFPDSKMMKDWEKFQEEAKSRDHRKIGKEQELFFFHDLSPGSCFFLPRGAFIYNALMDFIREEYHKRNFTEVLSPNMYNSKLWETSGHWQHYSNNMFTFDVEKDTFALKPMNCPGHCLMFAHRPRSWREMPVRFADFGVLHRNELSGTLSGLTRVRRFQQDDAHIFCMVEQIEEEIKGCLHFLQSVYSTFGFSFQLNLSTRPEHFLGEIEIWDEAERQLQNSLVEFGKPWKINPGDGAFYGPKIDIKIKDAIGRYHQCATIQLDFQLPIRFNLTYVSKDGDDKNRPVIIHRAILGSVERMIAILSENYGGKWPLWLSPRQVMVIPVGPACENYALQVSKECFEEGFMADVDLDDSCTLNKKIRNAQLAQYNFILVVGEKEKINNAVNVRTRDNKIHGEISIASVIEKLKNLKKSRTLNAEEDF
Description: affinity purification with mass spectrometry; extract of mouse muscle tissue, IP with anti-mThrRS-L antibodies; SDS-PAGE, silver staining, bands cut out for MS.
As for “Atp2a1, endogenous in mouse muscle tissue (from UniProt Q8R429 1-994)”, the binding entry is listed as “binds”. Under “mouse GluProRS, endogenous in muscle tissue (from UniProt Q8CGC7 1-1512) (enzyme)” stands “binds”; under “mouse LysRS, endogenous in muscle tissue (from UniProt Q99MN1 1-595) (enzyme)”, “binds”; under “mouse LeuRS, endogenous in muscle tissue (from UniProt Q8BMJ2 1-1178) (enzyme)”, “binds”.
